# According to the supplement of paper PMC12819154, “High-throughput peptide-centric local stability assay extends protein–ligand identification to membrane proteins, tissues and bacteria” (Nature Structural & Molecular Biology, 2025):
# Amino acid sequences for entries named in this document (tags omitted). A change or cut given only in a name is not applied to a line headed by its entry.
# UniProt Q9UL26: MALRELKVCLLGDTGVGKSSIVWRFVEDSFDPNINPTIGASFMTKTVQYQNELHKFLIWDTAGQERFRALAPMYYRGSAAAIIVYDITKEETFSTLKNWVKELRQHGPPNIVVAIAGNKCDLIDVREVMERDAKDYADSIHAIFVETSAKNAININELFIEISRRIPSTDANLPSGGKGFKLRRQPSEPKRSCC
# UniProt Q9Y312: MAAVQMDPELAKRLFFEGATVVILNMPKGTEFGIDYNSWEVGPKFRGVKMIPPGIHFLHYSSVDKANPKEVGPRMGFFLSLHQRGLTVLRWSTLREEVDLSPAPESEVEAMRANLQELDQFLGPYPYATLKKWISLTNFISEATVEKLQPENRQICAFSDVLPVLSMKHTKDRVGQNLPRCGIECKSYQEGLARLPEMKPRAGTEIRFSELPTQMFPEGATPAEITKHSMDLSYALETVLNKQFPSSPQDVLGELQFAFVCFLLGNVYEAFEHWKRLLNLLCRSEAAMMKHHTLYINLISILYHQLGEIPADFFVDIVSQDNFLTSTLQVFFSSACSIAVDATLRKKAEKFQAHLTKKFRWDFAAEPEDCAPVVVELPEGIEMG
# UniProt Q9Y305: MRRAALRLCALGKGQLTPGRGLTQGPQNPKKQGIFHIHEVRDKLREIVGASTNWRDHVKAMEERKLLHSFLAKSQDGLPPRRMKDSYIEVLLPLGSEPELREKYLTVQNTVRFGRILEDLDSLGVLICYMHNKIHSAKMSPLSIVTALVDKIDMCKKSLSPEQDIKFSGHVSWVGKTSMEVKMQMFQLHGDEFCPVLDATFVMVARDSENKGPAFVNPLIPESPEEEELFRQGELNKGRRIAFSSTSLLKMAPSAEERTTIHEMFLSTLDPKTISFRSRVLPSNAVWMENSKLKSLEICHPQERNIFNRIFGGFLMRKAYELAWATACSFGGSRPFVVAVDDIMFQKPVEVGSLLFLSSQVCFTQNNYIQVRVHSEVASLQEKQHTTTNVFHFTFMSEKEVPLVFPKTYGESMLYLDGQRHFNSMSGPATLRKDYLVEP
# UniProt Q9UMX0, whole entry: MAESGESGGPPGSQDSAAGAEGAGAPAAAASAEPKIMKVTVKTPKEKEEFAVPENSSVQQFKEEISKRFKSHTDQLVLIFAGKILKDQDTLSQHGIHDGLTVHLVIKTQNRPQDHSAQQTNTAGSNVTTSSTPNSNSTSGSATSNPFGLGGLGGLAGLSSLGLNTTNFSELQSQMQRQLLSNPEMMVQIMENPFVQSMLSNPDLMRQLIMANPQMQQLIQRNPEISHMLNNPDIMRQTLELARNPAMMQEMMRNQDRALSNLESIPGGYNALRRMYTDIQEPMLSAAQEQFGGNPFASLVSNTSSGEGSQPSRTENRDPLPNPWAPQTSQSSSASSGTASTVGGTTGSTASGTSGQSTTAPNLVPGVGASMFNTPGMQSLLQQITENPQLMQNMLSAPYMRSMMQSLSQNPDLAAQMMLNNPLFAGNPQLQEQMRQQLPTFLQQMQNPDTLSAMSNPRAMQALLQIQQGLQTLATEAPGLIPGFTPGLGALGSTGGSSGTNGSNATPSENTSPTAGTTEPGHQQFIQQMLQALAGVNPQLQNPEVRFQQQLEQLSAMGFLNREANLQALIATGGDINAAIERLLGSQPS
# UniProt Q9Y2D8: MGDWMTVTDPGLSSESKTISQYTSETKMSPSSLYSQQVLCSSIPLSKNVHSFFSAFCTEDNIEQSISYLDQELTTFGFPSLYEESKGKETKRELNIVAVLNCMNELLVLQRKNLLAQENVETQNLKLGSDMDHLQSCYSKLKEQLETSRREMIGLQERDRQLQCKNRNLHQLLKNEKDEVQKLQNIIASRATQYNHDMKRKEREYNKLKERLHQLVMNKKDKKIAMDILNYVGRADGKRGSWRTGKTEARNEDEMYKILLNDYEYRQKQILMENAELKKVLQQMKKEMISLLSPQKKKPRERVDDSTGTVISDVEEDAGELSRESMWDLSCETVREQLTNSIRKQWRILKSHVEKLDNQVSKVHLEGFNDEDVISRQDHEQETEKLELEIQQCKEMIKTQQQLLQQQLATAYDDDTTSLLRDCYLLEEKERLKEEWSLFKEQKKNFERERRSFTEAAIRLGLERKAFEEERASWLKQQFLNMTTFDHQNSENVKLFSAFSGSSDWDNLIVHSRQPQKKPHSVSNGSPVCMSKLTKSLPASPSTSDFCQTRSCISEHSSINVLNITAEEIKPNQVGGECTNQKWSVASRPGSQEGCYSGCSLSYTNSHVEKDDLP
# UniProt Q9Y376: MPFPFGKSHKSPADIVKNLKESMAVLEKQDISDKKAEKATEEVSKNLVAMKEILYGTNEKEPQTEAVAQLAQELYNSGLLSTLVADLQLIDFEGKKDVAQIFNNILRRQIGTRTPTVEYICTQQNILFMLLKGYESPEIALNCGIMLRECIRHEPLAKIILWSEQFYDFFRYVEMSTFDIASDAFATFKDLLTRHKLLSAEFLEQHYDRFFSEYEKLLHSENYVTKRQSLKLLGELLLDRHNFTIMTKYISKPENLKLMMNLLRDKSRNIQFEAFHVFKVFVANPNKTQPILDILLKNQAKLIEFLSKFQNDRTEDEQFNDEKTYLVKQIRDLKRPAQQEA
# UniProt Q9Y2Z4: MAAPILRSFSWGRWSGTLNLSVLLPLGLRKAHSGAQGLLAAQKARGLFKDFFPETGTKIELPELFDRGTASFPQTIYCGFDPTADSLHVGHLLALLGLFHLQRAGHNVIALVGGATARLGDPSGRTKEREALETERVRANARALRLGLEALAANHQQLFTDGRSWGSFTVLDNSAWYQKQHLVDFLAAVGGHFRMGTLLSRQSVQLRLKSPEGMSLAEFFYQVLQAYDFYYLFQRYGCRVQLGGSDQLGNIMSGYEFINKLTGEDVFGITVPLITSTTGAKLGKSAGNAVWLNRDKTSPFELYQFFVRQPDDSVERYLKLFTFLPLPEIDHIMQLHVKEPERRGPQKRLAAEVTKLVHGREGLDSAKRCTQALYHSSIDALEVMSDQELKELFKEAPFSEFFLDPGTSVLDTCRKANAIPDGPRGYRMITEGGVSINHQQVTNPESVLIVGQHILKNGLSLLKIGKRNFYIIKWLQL
# UniProt Q9Y2K3: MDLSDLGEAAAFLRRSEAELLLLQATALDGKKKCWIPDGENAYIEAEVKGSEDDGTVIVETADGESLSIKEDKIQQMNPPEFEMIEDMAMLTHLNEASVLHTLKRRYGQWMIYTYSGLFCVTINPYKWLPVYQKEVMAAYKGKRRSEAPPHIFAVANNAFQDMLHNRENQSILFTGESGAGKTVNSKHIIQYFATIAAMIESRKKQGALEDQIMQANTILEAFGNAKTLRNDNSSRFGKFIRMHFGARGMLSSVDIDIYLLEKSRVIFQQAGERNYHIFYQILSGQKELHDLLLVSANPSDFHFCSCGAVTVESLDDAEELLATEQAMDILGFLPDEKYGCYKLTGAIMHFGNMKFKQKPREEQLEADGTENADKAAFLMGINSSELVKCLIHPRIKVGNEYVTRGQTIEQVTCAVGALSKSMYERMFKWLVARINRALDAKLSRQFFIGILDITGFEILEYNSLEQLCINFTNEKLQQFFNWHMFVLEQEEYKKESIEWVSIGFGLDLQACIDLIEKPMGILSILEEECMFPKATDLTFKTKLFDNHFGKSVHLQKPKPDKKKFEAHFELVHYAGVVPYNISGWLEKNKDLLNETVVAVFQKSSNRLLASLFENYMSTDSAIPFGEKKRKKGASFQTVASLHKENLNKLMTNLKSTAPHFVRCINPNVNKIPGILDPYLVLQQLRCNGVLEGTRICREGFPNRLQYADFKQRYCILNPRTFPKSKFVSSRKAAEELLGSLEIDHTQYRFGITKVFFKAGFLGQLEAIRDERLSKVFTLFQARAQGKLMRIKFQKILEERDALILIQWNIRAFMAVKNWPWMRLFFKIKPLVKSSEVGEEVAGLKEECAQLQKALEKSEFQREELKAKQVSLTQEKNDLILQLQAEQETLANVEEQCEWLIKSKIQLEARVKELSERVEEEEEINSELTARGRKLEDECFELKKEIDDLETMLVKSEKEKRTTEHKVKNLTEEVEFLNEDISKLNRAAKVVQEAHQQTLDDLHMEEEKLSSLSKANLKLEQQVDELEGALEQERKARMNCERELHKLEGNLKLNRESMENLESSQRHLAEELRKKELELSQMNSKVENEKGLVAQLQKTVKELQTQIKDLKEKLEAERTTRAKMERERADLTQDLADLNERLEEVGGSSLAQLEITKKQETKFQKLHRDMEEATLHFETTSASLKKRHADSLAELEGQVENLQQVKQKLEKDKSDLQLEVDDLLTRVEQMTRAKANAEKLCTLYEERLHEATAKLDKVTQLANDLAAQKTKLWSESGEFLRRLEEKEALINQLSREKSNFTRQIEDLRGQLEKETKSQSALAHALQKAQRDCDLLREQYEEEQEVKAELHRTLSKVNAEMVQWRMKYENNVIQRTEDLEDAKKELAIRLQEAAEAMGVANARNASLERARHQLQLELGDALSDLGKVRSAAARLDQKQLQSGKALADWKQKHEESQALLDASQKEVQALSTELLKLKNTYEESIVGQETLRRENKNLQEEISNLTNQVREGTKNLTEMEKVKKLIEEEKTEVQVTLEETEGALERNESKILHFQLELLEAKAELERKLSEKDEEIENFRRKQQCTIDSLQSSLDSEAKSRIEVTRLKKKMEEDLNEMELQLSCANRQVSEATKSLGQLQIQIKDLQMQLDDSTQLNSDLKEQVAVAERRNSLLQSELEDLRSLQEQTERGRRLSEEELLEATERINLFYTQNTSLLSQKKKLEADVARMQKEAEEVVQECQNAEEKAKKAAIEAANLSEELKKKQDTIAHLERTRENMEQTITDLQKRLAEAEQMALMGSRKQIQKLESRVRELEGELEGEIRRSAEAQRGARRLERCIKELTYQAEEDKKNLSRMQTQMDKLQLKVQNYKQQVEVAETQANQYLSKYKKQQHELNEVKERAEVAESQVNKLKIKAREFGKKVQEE
# This is one part of the list. Small differences around the control level are noise.
# Compound: CN[C@@H]1C[C@H]2O[C@@](C)([C@@H]1OC)n1c3ccccc3c3c4c(c5c6ccccc6n2c5c31)C(=O)NC4 [staurosporine]
# Assay: log2 fold change of tryptic peptide abundance, ligand vs vehicle (limited proteolysis) (log2 ratio); higher = more trypsin-susceptible (destabilized)
# Settings: ligand concentration: 20 uM; sample: K562 cleared lysate; digestion: 4 min, 22 C (HT-PELSA RT4min, Orbitrap Astral)
row,Target,log2 fold change
1,"RAB22A (peptide sequence: VCLLGDTGVGK, peptide start residue: 8) (UniProt Q9UL26)",-0.37
2,"UniProt Q9Y312 (peptide sequence: MGFFLSLHQR, peptide start residue: 75)",-0.181
3,"ACOT9 (peptide sequence: KQGIFHIHEVR, peptide start residue: 31) (UniProt Q9Y305)",-0.456
4,"UBQLN1 (peptide sequence: NPEISHMLNNPDIMR, peptide start residue: 222) (UniProt Q9UMX0)",-0.11
5,"SSX2IP (peptide sequence: VHLEGFNDEDVISR, peptide start residue: 363) (UniProt Q9Y2D8)",-0.287
6,"CAB39 (peptide sequence: NLKESMAVLEKQDISDK, peptide start residue: 18) (UniProt Q9Y376)",0.678
7,"YARS2 (peptide sequence: KANAIPDGPR, peptide start residue: 415) (UniProt Q9Y2Z4)",0.561
8,"MYH15 (peptide sequence: LFDNHFGK, peptide start residue: 564) (UniProt Q9Y2K3)",0.372
